Test results reported in US9816075B2, “Compounds with modifying activity enhanced under hypoxic conditions” (Board of Regents, The University of Texas System, priority 2005, dated 2017).

What follows are substances tested on calf-thymus DNA (assay: Intercalator displacement titration for DNA binding constants). Conditions: 10 mM Tris, 10 mM NaCl, pH 7.5; fit to McGhee-von Hippel equation.

| Substance | binding site size (s) |
| --- | --- |
| [Ru2(phen)4tatpq]^4+ [[Ru2(phen)4(tatpq)]^4+] | 1.7 |
| [Ru2(bpy)2(tpphz)(CO)4]^4+ | 1.3 |
| [Ru2(phen)4tatpp]^4+ [[Ru2(phen)4(tatpp)]^4+] | 2.2 |
| [Ru2(bpy)2(tpphz)(CH3CN)4]^4+ | 2.5 |
